PubChem BioAssay AID1259308 | NCATS – 2017

Screen: 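Genes whose loss raises luciferase production in HEK293 cells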 (primary screen)
Cells: human HEK293 embryonic kidney cells stably expressing firefly luciferase (HEK-CMV-Luc2-Hygro)
Reagents: single siRNA against human genes, 0.8 pmol siRNA per well
Duration: 72 h
Measurement: 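Luciferase light (ONE-Glo) measured on one replicate plate set and viability (CellTiter-Glo) on the other, scaled to a negative control siRNA, with robust z-scores and luciferase per cell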
Scale: total luciferase, z-score and total luciferase, % of control: higher = more reporter protein produced
Call rule: 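Active when the median/MAD z-score for overall luciferase is greater than 3; a gene was taken forward for validation with new siRNAs if at least two of its three siRNAs passed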
Calls: active = raised luciferase; inactive = no rise
The deposit covers about 59,000 reagents; below is a random part of them. Over the whole deposit, about 1,510 (2.6%) were called active. 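Calls use total luciferase alone and ignore viability, so some active siRNAs may act by altering cell number.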 Unmarked entries are inactive. The numbers tell different reagents against one gene apart. Not all columns of the deposit are shown.

MRPL53 #1
- total luciferase, z-score: -1.5
- total luciferase, % of control: 52

MRPL53 #2
- total luciferase, z-score: 0.177
- total luciferase, % of control: 85.4

MRPL53 #3
- total luciferase, z-score: 0.48
- total luciferase, % of control: 91.4

LTBP4 #1
- total luciferase, z-score: 0.68
- total luciferase, % of control: 95.4

LTBP4 #2
- total luciferase, z-score: -0.263
- total luciferase, % of control: 76.7

LTBP4 #3
- total luciferase, z-score: 0.167
- total luciferase, % of control: 85.2

TMEM31 #1
- total luciferase, z-score: 0.893
- total luciferase, % of control: 99.6

TMEM31 #2
- total luciferase, z-score: 1.08
- total luciferase, % of control: 103

TMEM31 #3
- total luciferase, z-score: -0.733
- total luciferase, % of control: 67.3

OR2T11 #1
- total luciferase, z-score: -0.0181
- total luciferase, % of control: 81.5

OR2T11 #2
- total luciferase, z-score: 2.93
- total luciferase, % of control: 140

OR2T11 #3
- total luciferase, z-score: -2.6
- total luciferase, % of control: 30.1

ARV1 #1
- total luciferase, z-score: -0.0546
- total luciferase, % of control: 80.8

ARV1 #2
- total luciferase, z-score: -0.155
- total luciferase, % of control: 78.8

ARV1 #3
- total luciferase, z-score: 0.543
- total luciferase, % of control: 92.7

RAVER2 #1
- total luciferase, z-score: -0.309
- total luciferase, % of control: 75.7

RAVER2 #2
- total luciferase, z-score: -0.0989
- total luciferase, % of control: 79.9

RAVER2 #3
- total luciferase, z-score: -0.138
- total luciferase, % of control: 79.1

EMX2 #1
- total luciferase, z-score: 2.95
- total luciferase, % of control: 140

EMX2 #2
- total luciferase, z-score: 0.783
- total luciferase, % of control: 97.5

EMX2 #3
- total luciferase, z-score: -1.18
- total luciferase, % of control: 58.4

UBE2D4 #1
- total luciferase, z-score: 0.687
- total luciferase, % of control: 95.5

UBE2D4 #2
- total luciferase, z-score: -1.74
- total luciferase, % of control: 47.3

UBE2D4 #3
- total luciferase, z-score: 0.547
- total luciferase, % of control: 92.8

ZNF883 #1
- total luciferase, z-score: 0.523
- total luciferase, % of control: 92.3

ZNF883 #2
- total luciferase, z-score: -1.36
- total luciferase, % of control: 54.9

ZNF883 #3
- total luciferase, z-score: 1.22
- total luciferase, % of control: 106

CDH26 #1
- total luciferase, z-score: 0.253
- total luciferase, % of control: 86.9

CDH26 #2
- total luciferase, z-score: -0.209
- total luciferase, % of control: 77.7

CDH26 #3
- total luciferase, z-score: -0.692
- total luciferase, % of control: 68.1

SGO1 #1
- total luciferase, z-score: -0.983
- total luciferase, % of control: 62.3

SGO1 #2
- total luciferase, z-score: 0.226
- total luciferase, % of control: 86.4

SGO1 #3
- total luciferase, z-score: -0.643
- total luciferase, % of control: 69.1

An excerpt of the results above, as a working copy:
EMX2 #1
- total luciferase, z-score: 2.95
- total luciferase, % of control: 140

EMX2 #2
- total luciferase, z-score: 0.783
- total luciferase, % of control: 97.5

EMX2 #3
- total luciferase, z-score: -1.18
- total luciferase, % of control: 58.4

UBE2D4 #1
- total luciferase, z-score: 0.687
- total luciferase, % of control: 95.5

UBE2D4 #2
- total luciferase, z-score: -1.74
- total luciferase, % of control: 47.3
